A: 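Lysine-tRNA ligase, Plasmodium falciparum 3D7 (UniProt Q8IDJ8). Enzyme assay of the cytosolic lysyl-tRNA synthetase in 384-well plates, read by luminescence. Tested at 30 µM. Higher reads as stronger inhibition, judged from the few compounds that gave an IC50. About 69,000 compounds were tested under these conditions; 0.071% (about 49) showed 50% or more at least once.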
B: 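Enzyme assay of tryptophanyl-tRNA synthetase; the read-out is not stated. Target: Tryptophan-tRNA ligase, Mycobacterium tuberculosis (UniProt P9WFT3). Compounds at 10 µM. Higher most likely means stronger inhibition; the record gives no direction and few retests gave an IC50. Size under these conditions: about 65,000 compounds, about 64 of them at 50% or above in at least one test.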
C: 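ClpP1P2, Mycobacterium tuberculosis (UniProt P9WPC5 and UniProt P9WPC3). Protease assay of ClpP1P2, read by the AMC dye that it sets free. Concentration: 50 µM. Direction is inferred from only a few compounds that gave an IC50; most scored high, so higher reads as stronger inhibition. Most other retested compounds had strongly negative values. About 69,000 compounds were tested under these conditions; 0.015% (about 10) showed 50% or more at least once.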

Sequences of proteins named here, by UniProt entry; tags and fusion partners are left off. Residues count along the entry.
UniProt Q8IDJ8, 1-583: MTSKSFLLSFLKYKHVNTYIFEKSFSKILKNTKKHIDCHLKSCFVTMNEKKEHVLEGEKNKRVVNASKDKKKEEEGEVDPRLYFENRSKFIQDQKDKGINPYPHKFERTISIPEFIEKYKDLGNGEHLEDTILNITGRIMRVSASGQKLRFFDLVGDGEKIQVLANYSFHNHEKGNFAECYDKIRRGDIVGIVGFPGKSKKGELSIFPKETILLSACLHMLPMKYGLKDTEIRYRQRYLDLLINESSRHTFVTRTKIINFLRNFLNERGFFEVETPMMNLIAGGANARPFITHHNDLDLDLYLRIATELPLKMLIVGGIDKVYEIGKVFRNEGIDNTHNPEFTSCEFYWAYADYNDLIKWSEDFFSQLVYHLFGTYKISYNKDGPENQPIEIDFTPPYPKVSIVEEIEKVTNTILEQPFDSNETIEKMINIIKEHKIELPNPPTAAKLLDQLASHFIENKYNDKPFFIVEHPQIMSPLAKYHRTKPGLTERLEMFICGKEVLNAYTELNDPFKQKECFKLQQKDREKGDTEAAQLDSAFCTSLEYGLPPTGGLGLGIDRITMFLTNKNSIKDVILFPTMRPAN
UniProt P9WFT3, whole entry: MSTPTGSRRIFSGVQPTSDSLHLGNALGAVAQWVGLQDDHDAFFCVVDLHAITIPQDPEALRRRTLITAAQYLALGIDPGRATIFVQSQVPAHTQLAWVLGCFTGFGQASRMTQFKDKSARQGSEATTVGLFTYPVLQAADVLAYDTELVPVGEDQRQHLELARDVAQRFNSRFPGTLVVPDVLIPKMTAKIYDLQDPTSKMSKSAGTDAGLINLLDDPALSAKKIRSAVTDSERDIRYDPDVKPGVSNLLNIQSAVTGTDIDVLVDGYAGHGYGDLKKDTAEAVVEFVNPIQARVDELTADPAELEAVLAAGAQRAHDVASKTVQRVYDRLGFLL
UniProt P9WPC5, whole entry: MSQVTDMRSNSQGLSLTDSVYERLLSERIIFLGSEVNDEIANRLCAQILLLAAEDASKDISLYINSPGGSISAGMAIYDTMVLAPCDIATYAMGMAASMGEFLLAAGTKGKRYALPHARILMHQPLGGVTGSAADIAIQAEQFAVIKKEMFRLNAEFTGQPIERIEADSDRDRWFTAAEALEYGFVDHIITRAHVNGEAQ
UniProt P9WPC3, whole entry partner: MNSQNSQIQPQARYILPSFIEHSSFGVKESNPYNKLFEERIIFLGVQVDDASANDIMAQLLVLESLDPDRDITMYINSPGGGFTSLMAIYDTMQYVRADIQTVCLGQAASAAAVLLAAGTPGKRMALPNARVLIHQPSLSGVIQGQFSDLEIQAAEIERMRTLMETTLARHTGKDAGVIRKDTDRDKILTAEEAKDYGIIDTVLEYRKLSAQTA

The filed quantity is “Percent Effect” (%). How 0% and 100% were set is not recorded. Most values in the screen are low, and negative values occur. Compounds were drawn at random from those tested, without regard to their results. A dash means the value is not listed here; it may have been measured.

structure,A,B,C
COCC(=O)N1CCCC(c2cc(C(F)F)n3ncnc3n2)C1 (centres undefined),5.724,-,2.978
CCCc1nnc(C(=O)N(C)Cc2ccc(OC)cc2)o1,3.915,-3.119,-2.065
Cc1ncsc1CN1C[C@@H](OCC2CC2)[C@H]2OCCC[C@H]21,1.767,0,-0.9728
CN(CC1(CO)CCC1)C(=O)c1cc(COc2ccccc2F)[nH]n1,2.933,2.581,-16.23
O=C(O)c1ccccc1-c1ccc(CN2CCOCC2)cn1,1.857,-3.03,-1.287
CCN(C)C(=O)c1ccnn1-c1ccc2ccccn12,-5.259,0.9709,-3.326
O=C(c1scc2c1OCCO2)N1CCN(Cc2cccc(F)c2)CC1,-0.1925,1.102,-1.985
c1ccc2c(c1)CC(CNCc1ccncc1)(N1CCCCC1)C2,3.897,0.4461,-2.285
Cc1n[nH]c(C)c1CC(=O)N1CCN(C)C2(CCNC(=O)CC2)C1 (centres undefined),0.4246,0.9183,-8.992
Cc1ccccc1OCC(=O)N1CCN(C2CCOC2=O)CC1 (centres undefined),-0.5152,0.1412,-18.25
CC(C)CN1CCC2(C1)CN(c1ncccn1)C2,1.633,0,16.32
Cc1nc(C(=O)N(C)C2CC(=O)N(Cc3ccccc3)C2=O)cs1 (centres undefined),4.258,-3.783,-7.041
Cc1cc(=O)[nH]c(NCCNC(=O)C(c2ccc(F)cc2)N(C)C)n1 (centres undefined),-4.836,2.549,5.301
CSCC(C)(O)CNc1ccccn1 (centres undefined),1.915,-4.161,-3.3
Cc1cc(CN2CCN(Cc3cc(C#N)ccc3F)CC2)no1,-1.783,1.713,14
CSc1cccc(NC(C)C(=O)Nc2nccs2)c1 (centres undefined),1.492,-0.7282,13.78
c1ccc(O[C@@H]2CO[C@@]3(CCCN(CC4CCOCC4)C3)C2)nc1,-0.5594,-0.6823,-7.466
Cc1cccc(N2CCN(CCC(=O)NCc3cnc(C)cn3)CC2)c1,-1.409,-1.667,0.62
Cc1cnc(N2CCCC3(CCN(Cc4csc(C)n4)C3=O)C2)nc1 (centres undefined),1.471,1.154,-4.645
CN(Cc1cnn(C)c1)C(=O)NCc1ccc2c(c1)OCCO2,-0.0327,2.225,-18.32
Cc1cnn(CCNCc2nccn2Cc2ccccc2)c1,3.818,-5.982,-17
Cn1cccc1C(=O)N1CCC2(CC1)c1nc[nH]c1CCN2S(C)(=O)=O,3.005,-3.367,-12.51
c1cnn(CC2CCCN2Cc2nc(-c3ccoc3)no2)c1 (centres undefined),3.075,-1.436,-8.668
Cc1ccc(CSc2ncc(Br)c(C(=O)O)n2)cc1,4.147,0.9488,-6.105
Cc1ccc(CN2CCc3onc(C(=O)NC(C)C)c3C2)o1,1.325,-,-7.259
COC(=O)c1cc(OCC2CCC2)cc(C(=O)NCC(C)(C)O)c1,7.967,4.079,-1.818
COC(=O)c1cc(NCc2cscn2)ccc1C,0.2148,-2.987,-5.581
CCCn1nc(C(=O)NC2(c3ccc(Cl)cc3)CCCC2)ccc1=O,5.039,1.537,-7.858
Cc1nn(C)c2ncnc(N3CCCC(C)(O)C3)c12 (centres undefined),4.142,0.9662,-10.85
CC(C)(C)n1cc(C2=CCN(CCc3ccccn3)CC2)cn1,1.017,0.4617,3.909
CCN(CC)C(=O)C1CCCN(CC(=O)Nc2c(C)nn(CC)c2C)C1 (centres undefined),-1.28,-4.637,-4.002
CC(C)C(NC(=O)c1ccc(=O)[nH]c1)c1nnc2n1CCNCC2 (centres undefined),4.905,2.235,-4.088
Cc1csc2c(C3CCN(C(=O)Cn4cncn4)CC3)nc(C)n12,0.1191,-4.581,-11.39
CO[C@@H]1CCN(S(=O)(=O)N(C)C)[C@@H]2CN(Cc3ccncc3)C[C@@H]21,3.987,-1.904,12.33
COc1ncccc1CNC(=O)NCc1ccco1,0.5969,-2.563,-16.82
CCOCC(=O)N1CCC(C)(c2nccs2)CC1,-1.292,5.157,-10.42
Cc1cc(C)n2nc(C(=O)N[C@H]3C[C@H]4CN(C)CCN4C3)cc2n1,5.415,-3.307,-7.249
CCOC(=O)CCn1cnc2onc(-c3cc(OC)ccc3Cl)c2c1=O,-3.808,-2.522,-2.672
C[C@H]1C[C@H]2CN(C(=O)c3cccc4c3OCCO4)CC[C@H]2O1,-9.946,9.593,-0.7513
O=C(c1ccccn1)N1CCC2(CC1)C(=O)Nc1ccccc12,6.002,-3.653,-15.41
C[C@H]1C[C@@H]2CCN(C(=O)c3ccccn3)C[C@H]2O1,-7.446,1.936,-2.008
CC(c1nc(C2CC2)no1)N1CCN(Cc2nnc(C3CC3)o2)CC1 (centres undefined),-0.8307,-3.464,-9.494
COc1ccc(C(C)N2CCC(C(=O)NC3CC3)CC2)cc1Cl (centres undefined),6.407,-8.855,3.673
CCN(CC)S(=O)(=O)c1ccc(OC)c(NC(=O)CSC)c1,5.34,0.3894,-6.219
CNc1ncccc1CN1CCN(C(C)=O)CC(C(N)=O)C1 (centres undefined),-0.03504,-3.03,-13.3
CC(C)n1nnnc1-c1ccc(NC(=O)CC(F)(F)F)cc1F,-3.23,1.861,-1.997
Clc1ccc(CN2CCCC2Cn2cncn2)c2ncccc12 (centres undefined),1.393,7.547,-25.13
CC(CN(C)Cc1cccc(-n2cccn2)c1)C(F)(F)F (centres undefined),0.2219,-1.665,18.69

6 of the entries, repeated:

structure,A,B,C
c1ccc(O[C@@H]2CO[C@@]3(CCCN(CC4CCOCC4)C3)C2)nc1,-0.5594,-0.6823,-7.466
O=C(O)c1ccccc1-c1ccc(CN2CCOCC2)cn1,1.857,-3.03,-1.287
CSCC(C)(O)CNc1ccccn1 (centres undefined),1.915,-4.161,-3.3
C[C@H]1C[C@@H]2CCN(C(=O)c3ccccn3)C[C@H]2O1,-7.446,1.936,-2.008
CSc1cccc(NC(C)C(=O)Nc2nccs2)c1 (centres undefined),1.492,-0.7282,13.78
Cc1nc(C(=O)N(C)C2CC(=O)N(Cc3ccccc3)C2=O)cs1 (centres undefined),4.258,-3.783,-7.041

Data taken from ChEMBL document CHEMBL3988442, “University of Dundee, Small-Polar-MMV Screening Library” (2021).